From patent US20030003050A1 (priority 2001, published 2003)
Where two headings read alike, the source gives them in different places.

Test system: B6μ, Heμ and CXμ mice
Settings: before vs after 10 mg/kg intraperitoneal, 15 minutes after injection, measured for 300 seconds

CN1CC[C@]23c4c5ccc(O)c4O[C@H]2[C@@H](O)C=C[C@H]3[C@H]1C5.Cl [morphine, Morphine hydrochloride]
walking distance (morphine-induced hyperactivity), open-field test (B6μ and Heμ mice): walked similar distances before and after morphine administration | walking distance (morphine-induced hyperactivity), open-field test (CXμ mice, p<0.001): walked significantly shorter distances after morphine administration
